The list shows a part of the results.
B1: il2ra_site2_2erj_sap_27_mot_3b06bd03f1c6bceadc68eab912867b79_0001_000000296_0001_36_50_H_._HHH_b1_03694_0001_0000600025_0000001_0_0001 (protein)
chain: SSSSSDREEFERVAELLARAAHIEDEEEVEKLLKEAEKIAEELNDEFAKRYVEFARRSYSSSSSS
B2: il2ra_site2_2erj_sap_17_mot_HHH_b2_05198_af2_000000162_0001_40_52_H_._HHH_b1_07298_0002_0000300014_0000001_0_0001 (protein)
chain: SSSSSEHYERVIELLVKAIELAREGDEEEAKEVLREAEEIAEEANDPYTLRYLQLAAKALSSSSS
B3: il2ra_site2_3nfp_sap_7_mot_HHH_b2_00746_000000285_0001_20_36_H_._HHH_b2_00413_af2_0001_0000200017_0000001_0_0001 (protein)
chain: SSSSDEVEELLREIRELLEEGDTYEAAQLLVRVSEIAAKLGDPELVKIVLELYKILKEKASSSSS
B4: il2ra_site2_3nfp_sap_24_mot_HHH_b1_06174_af2_000000017_0001_40_57_H_._3020bb65e3c0c4c1750efda2a61ed53f_0001_1_0001_0000100014_0000001_0_0001_af2pred_0001_af2pre … (protein)
chain: SSSSDEEEEEVKRLLEEAKELLKEGDPEEARRVLERAAKIAFELGNIELWVEIAELRQKLGSSSS
B5: il2ra_site2_3nfp_sap_15_mot_HHH_b2_06150_000000217_0001_39_53_H_._HHH_b2_00212_0001_0000300027_0000001_0_0001_af2pred_0001_1_af2pred_swapped (protein)
chain: DLTELIRELFESGDPDLQEIAHLLWLARVEGDEEVVELIEELIEELRKGELPPEEVRRLVEELLR
B6: il2ra_site2_3nfp_sap_17_mot_HHH_b2_05281_000000198_0001_39_56_H_._HHH_b1_05310_af2_0001_0000800014_0000001_0_0001 (protein)
chain: SSSSSDVEELLEEAEELIEDGNPYEAAQVLLEAAELIARRGDEELARILLELFELLQRAGSSSSS
B7: il2ra_site1_1z92_normal_mot_HHH_b1_08190_000000249_0001_1_19_H_._2c3364830c66fee1b0e8427e812e8af0_0001_0001_0000100002_0000001_0_af2pred_0001_af2pred (protein)
chain: SDEFLERQLKRKLELGNIEKFAKHLFKLLEIAAGDPEEAEEILRRLLEAAGVPPEVIEKILEEAK
B8: il2ra_site1_3nfp_normal_mot_ems_3hC_775_af2_000000149_0001_42_60_H_._592181844b486e9d3e72ee682cc18b0b_0001_0001_0000400025_0000001_0 (protein)
chain: DEERLEELAEELGVPPQARHLAKLILRARKQGFPPEEAERAVERYARLLGIPPEVIELAKELVRR
B9: il2ra_site2_3nfp_sap_16_mot_HHH_b2_05976_000000001_0001_22_38_H_._c19e5fdadaa67d7d98d76bf2a1bb890a_0001_af2_0001_0000400037_0000001_0_0001 (protein)
chain: SSSSDDVEEYLRAALALARRAIKQGDEELAEKILRLIAKSAEDAKDEEALKEAEELLREVGSSSS
B10: il2ra_site2_3nfp_normal_mot_HHH_b1_06797_000000164_0001_24_40_H_._HHH_b1_07797_0001_0000200020_0000001_0 (protein)
chain: SSSSSKVEEYLEAVLLVAELALEEGDEEAARRQLRLAIEAAELLGNPELLEKLEELLEEINSSSS
B11: il2ra_site1_2b5i_normal_mot_HHH_b2_04910_000000118_0001_1_19_H_._HHH_b2_03843_0001_0000400028_0000001_0_af2pred_dldesign_0_af2pred (protein)
chain: SSSSSPECEEALRLFLKANELFQAGKEEEAKKLLEEALEKAKKGKCNLLVKIIEAALKEISSSSS
B12: il2ra_site1_3nfp_sap_21_mot_HHH_b2_02066_af2_000000034_0001_1_16_H_._c2845cfc7c062bbeb7cd94dd36b2ebbf_0001_af2_0001_0000100001_0000001_0_0001_af2pred_0001_af2pr … (protein)
chain: SSSEEELQELFKLALELHKKLTNPEARQVVIHAMALVARATRTKDPELERRAREAIEEAEELDSS
B13: il2ra_site1_1z92_sap_14_mot_0152819cca26c81f8eead0111e16a660_0001_000000247_0001_36_50_H_._d46665258beb4c452e319e322a52fdaa_0001_0001_0000400033_0000001_0_0001 (protein)
chain: SSSSSLEKNARIAVRVAVEIAGLSEEQKELLEELAEELIREGLDALELIRELDRLAVELASSSSS
B14: il2ra_site1_3nfp_normal_mot_HHH_b2_05589_af2_000000178_0001_1_18_H_._HHH_b2_01005_af2_0001_0000200018_0000001_0_af2pred_0001_af2pred_1 (protein)
chain: SSSSSDELRELNKLLKEARELRKEGDPEEARRVLEEALELAEELGDELALEALRLLLERTSSSSS
B15: il2ra_site1_1z92_normal_mot_HHH_b2_06396_000000229_0001_39_55_H_._HEEHE_3358_0001_0000200013_0000001_0 (protein)
chain: DEEHDVERLTRLIEEIAGVPSVEVTFEDGEYTLEVEGDDEAAELARDAFRAFAKLLGVPFTVEKE
B16: il2ra_site1_3nfp_normal_mot_HHH_b1_01231_af2_000000247_0001_40_57_H_._HHH_b2_05487_af2_0001_0000200012_0000001_0_af2pred_0001_1_af2pred_swapped (protein)
chain: SSSSSSKLELLEKALELSARGNLEEAERLLEELEEELEEKGDERALRRVRFMLRSIEHVRSSSSS
B17: il2ra_site1_1z92_sap_10_mot_HHH_b1_00451_000000274_0001_21_37_H_._HEEHE_2072_0001_0000100014_0000001_1_0001_af2pred_0001_af2pred (protein)
chain: DDEEEIEHFVRLAAKTAGVPSVTWSEHNGELHVTINGDDEAAERLAKLLEKFAKASGLKVEVEIR
B18: il2ra_site1_1z92_normal_mot_6c2800a769814540b5b47941e710ff28_0001_af2_000000005_0001_35_49_H_._HEEHE_2850_af2_0001_0000500023_0000001_0 (protein)
chain: DREEKLKEELERLVKQAGVPSVEVEVKDGEIRVTIEGDDEHVRSAERIVERLARDAQVPVEFETG

The binders below were run against il2ra, P01589 (assay: yeast display titration).

Apparent Kd, inactive:
B1 no binding seen
B2 no binding seen
B3 no binding seen
B4 no binding seen
B5 no binding seen
B6 no binding seen
B7 no binding seen
B8 no binding seen
B9 no binding seen
B10 no binding seen
B11 no binding seen
B12 no binding seen
B13 no binding seen
B14 no binding seen
B15 no binding seen
B16 no binding seen
B17 no binding seen
B18 no binding seen

Reprinted at random: 2 records from the list, in no set order.
Apparent Kd, inactive:
B1 no binding seen
B17 no binding seen
